# Test results from the supplement of paper PMC5355238.
# Structures can show the parent of a compound that is named as a salt. Some of the results follow. Repeats are few or missing, and single values can be far off.
# System: Reh
# Test: S-phase gammaH2AX median, Z-score vs plate median (drug alone); higher = more S-phase DNA damage
# Conditions: MK1775 concentration 0 nM; 10 µM; 4 h
row,Structure (SMILES),S-phase gammaH2AX median (Z-score)
1,O=C(O)CCC(NC(=O)c1ccccc1C(=O)O)C(=O)O [Phthalamoyl-L-glutamic acid trisodium],-0.052
2,Cc1ccc(O)c(N=Nc2ccccc2)n1,-0.254
3,CSc1ccc2c(c1)C(N1CCN(C)CC1)Cc1ccccc1S2 (centres undefined) [Methiothepin mesylate],-0.147
4,CN1CCc2cc(O)c(O)cc2C(c2ccccc2)C1 (centres undefined),-0.0868
5,CCCCCC[C@@H]([C@@H](C)O)n1cnc2c(N)ncnc21 [erythro-9-(2-Hydroxy-3-nonyl)adenine hydrochloride],0.0535
6,CC[N+](C)(C)Cc1ccccc1Br [Bretylium tosylate],-0.00194
7,C[N+](C)(C)CCCCCC[N+](C)(C)C [Hexamethonium bromide],0.167
8,C[N+](C)(C)CCCCCC[N+](C)(C)C [Hexamethonium dichloride],0.0661
9,CN1C(C)(C)CCCC1(C)C [Pempidine tartrate],-0.052
10,"Cc1cn(C2C=CC(CO)O2)c(=O)[nH]c1=O (centres undefined) [2',3'-didehydro-3'-deoxythymidine]",0.532
11,CC(CCc1ccccc1)NCC(O)c1ccc(O)c(C(N)=O)c1 (centres undefined) [Labetalol hydrochloride],-0.0882
12,O=C(O)c1cccnc1Nc1cccc(C(F)(F)F)c1 [Niflumic acid],0.0426
13,Cc1oncc1C(=O)Nc1ccc(C(F)(F)F)cc1 [Leflunomide],0.0922
14,O=C(CCc1ccc(O)cc1)c1c(O)cc(O)cc1O [Phloretin (Dihydronaringenin)],-0.0298
15,O=C(CCc1ccc(O)cc1)c1c(O)cc(O)cc1O [Phloretin],0.475
16,CC1(NC(=O)CBr)CCC(C(C)(C)NCC(O)COc2cccc3[nH]ccc23)CC1 (centres undefined) [(?)-Pindobind],0.0426
17,CNC[C@H](O)c1ccc(O)c(O)c1 [(-)-Epinephrine bitartrate],0.0693
18,CN1CCN(CCCN2c3ccccc3Sc3ccc(C(F)(F)F)cc32)CC1 [Trifluoperazine dihydrochloride],-0.521
19,CCc1cc(Nc2nccc(-c3c(-c4ccc(OC)c(C(=O)Nc5c(F)cccc5F)c4)nc4ccccn34)n2)c(OC)cc1N1CCC(N2CCN(S(C)(=O)=O)CC2)CC1,-0.08
20,"Nc1ccn([C@H]2CC[C@@H](CO)O2)c(=O)n1 [2',3'-dideoxycytidine]",1.11
21,CC(C)(C#N)c1cc(Cn2cncn2)cc(C(C)(C)C#N)c1 [Anastrozole],-0.0986
22,COc1cc2nccc(Oc3ccc(NC(=O)Nc4cc(C)on4)c(Cl)c3)c2cc1OC [Tivozanib (AV-951)],-0.123
23,CCCCCCCCCCCCCCC[C@H](O)[C@H](N)CO (racemic) [DL-erythro-Dihydrosphingosine],-0.00945
24,CN(C)CCOC(C)(c1ccccc1)c1ccccn1 (centres undefined) [Doxylamine succinate],0.0661
25,COc1cccc(-c2cc(=O)c3ccccc3o2)c1N,-0.0946

# Looked up above.
# CSc1ccc2c(c1)C(N1CCN(C)CC1)Cc1ccccc1S2 (centres undefined) [Methiothepin mesylate] – S-phase gammaH2AX median (Z-score): -0.147
# O=C(CCc1ccc(O)cc1)c1c(O)cc(O)cc1O [Phloretin (Dihydronaringenin)] – S-phase gammaH2AX median (Z-score): -0.0298
# CCCCCCCCCCCCCCC[C@H](O)[C@H](N)CO (racemic) [DL-erythro-Dihydrosphingosine] – S-phase gammaH2AX median (Z-score): -0.00945

# (continued)

row,Structure (SMILES),S-phase gammaH2AX median (Z-score)
1,C[C@]1(O)C[C@@H](c2nc(-c3ccc4ccc(-c5ccccc5)nc4c3)c3c(N)nccn32)C1 [Linsitinib (OSI-906)],0.053
2,O=C(C1CCCCC1)N1CC(=O)N2CCc3ccccc3C2C1 (centres undefined) [Praziquantel],0.196
3,C(=C\c1ccccc1)/CN1CCN(C(c2ccccc2)c2ccccc2)CC1 [Cinnarizine],0.00777
4,COc1ccc2c(c1)c(CC(=O)O)c(C)n2C(=O)c1ccc(Cl)cc1 [Indomethacin],0.18
5,Nc1nc2ccc(OC(F)(F)F)cc2s1 [Riluzole],-0.254
6,CN1CCc2c(cc(O)c(O)c2Cl)C(c2cccc(Cl)c2)C1 (centres undefined),-0.654
7,O=C(O)c1cc(=O)cc(C(=O)O)[nH]1 [Chelidamic acid],-0.0194
8,CNC(=O)c1cc(Oc2ccc(NC(=O)Nc3cc(C(C)(C)C)nn3-c3ccc4ncccc4c3)c(F)c2)ccn1 [DCC-2036 (Rebastinib)],-0.102
9,C/C=C1\C(=O)C[C@H]2[C@@H]3CCC4=CC(=O)CC[C@]4(C)[C@H]3CC[C@]12C [(Z)-Gugglesterone],-0.0567
10,CC(C)C[C@H](NC(=O)[C@H](O)[C@H](N)Cc1ccccc1)C(=O)O [Epibestatin hydrochloride],-0.0441
11,CNC(=O)c1cc(Oc2ccc(NC(=O)Nc3ccc(Cl)c(C(F)(F)F)c3)c(F)c2)ccn1 [Regorafenib (BAY 73-4506)],-0.0677
12,O=C(Nc1ccccc1-c1cn2c(CN3CCNCC3)csc2n1)c1cnc2ccccc2n1,-0.205
13,COc1ccc2c(c1OC)C(=O)O[C@@H]2[C@H]1c2c(cc3c(c2OC)OCO3)CCN1C [Noscapine hydrchloride],-0.132
14,CCCCCCCCCCCCCCCC(=O)OC(CC(=O)O)C[N+](C)(C)C (racemic) [Palmitoyl-DL-Carnitine chloride],-0.168
15,C=CCc1cccc(/C=N/NC(=O)CN2CCN(Cc3ccccc3)CC2)c1O,1.09
16,O=C(O)C1CCCNC1 (centres undefined) [(?)-Nipecotic acid],-0.0252
17,CC(Oc1ccc(Oc2cnc3ccc(Cl)cc3n2)cc1)C(=O)O (centres undefined),5.87
18,CN(C)C(=O)C(CCN1CCC(O)(c2ccc(Cl)cc2)CC1)(c1ccccc1)c1ccccc1 [Loperamide hydrochloride],-0.11
19,N=C(N)NCCSSCCNC(=N)N [Guanidinoethyl disulfide dihydrobromide],0.139
20,CC[N+](CC)(CC)CCOc1ccc(/C=C/c2ccccc2)cc1,-0.0118
21,COc1cc2c(N3CCN(C(=O)Nc4ccc(OC(C)C)cc4)CC3)ncnc2cc1OCCCN1CCCCC1 [Tandutinib (MLN518)],-0.112
22,Cc1cc(O)c2c(c1)C(=O)c1cccc(O)c1C2=O [Chrysophanic acid (Chrysophanol)],0.23
23,COc1cc(C(=O)NC(=S)Nc2cccc(NC(=O)c3ccccc3)c2)cc(OC)c1OC,-0.0653
24,NC(N)=NC(N)=Nc1cccc(Cl)c1 [1-(m-Chlorophenyl)-biguanide hydrochloride],0.0505
25,CCOc1ccc(Nc2nc(-c3c(C)nc4ccccn34)cs2)cc1,-0.106

row,Structure (SMILES),S-phase gammaH2AX median (Z-score)
1,NC[C@@H]1O[C@H](O[C@H]2[C@@H](O)[C@H](O[C@@H]3[C@@H](O)[C@H](N)C[C@H](N)[C@H]3O[C@H]3O[C@H](CO)[C@@H](O)[C@H](O)[C@H]3N)O[C@@H]2CO)[C@H](N)[C@@H](O)[C@@H]1O [Paromomycin sulfate],0.201
2,CC[C@]1(O)C[C@H]2CN(CCc3c([nH]c4ccccc34)[C@@](C(=O)OC)(c3cc4c(cc3OC)N(C=O)[C@H]3[C@@](O)(C(=O)OC)[C@H](OC(C)=O)[C@]5(CC)C=CCN6CC[C@]43[C@@H]65)C2)C1 [Vincristine sulfate],0.194
3,CC[C@]1(O)C[C@H]2CN(CCc3c([nH]c4ccccc34)[C@@](C(=O)OC)(c3cc4c(cc3OC)N(C=O)[C@H]3[C@@](O)(C(=O)OC)[C@H](OC(C)=O)[C@]5(CC)C=CCN6CC[C@]43[C@@H]65)C2)C1 [Vincristine],0.191
4,Cc1cccc(C)c1OCC(C)N (centres undefined) [Mexiletene hydrochloride],0.0189
5,CN[C@@H](C)C(=O)N[C@H]1CN(C(=O)CC(C)C)CC[C@H]2CC[C@@H](C(=O)NC(c3ccccc3)c3ccccc3)N2C1=O,-0.0769
6,COc1ccccc1N1CCN(CCCCN2C(=O)c3ccccc3C2=O)CC1 [NAN-190 hydrobromide],-0.173
7,Oc1ccc(/C=C/c2cc(O)cc(O)c2)cc1 [Resveratrol],-0.215
8,CCN(CC)CCNC(=O)c1c(C)[nH]c(/C=C2\C(=O)Nc3ccc(F)cc32)c1C [Sunitinib Malate (Sutent)],-0.0336
9,COc1ccc(/C=C/C(=O)Nc2ccccc2C(=O)O)cc1OC [Tranilast],-0.447
10,CCOc1cc2ncc(C#N)c(Nc3ccc(F)c(Cl)c3)c2cc1NC(=O)/C=C/CN(C)C [Pelitinib (EKB-569)],0.454
11,"CCCc1c(-c2ccc(O)cc2)nn(-c2ccc(O)cc2)c1-c1ccc(O)cc1 [1,3,5-tris(4-hydroxyphenyl)-4-propyl-1H-pyrazole]",0.0598
12,N#C/C(=C\c1c[nH]c2ccccc12)C(=O)c1ccc(O)c(O)c1 [Tyrphostin AG 808],-0.507
13,Cn1cnc2c1c(=O)[nH]c(=O)n2C [Theobromine],0.16
14,NCCCNCCCCNCCCN [Spermine tetrahydrochloride],-0.0868
15,CCN(CC)CCNC(=O)c1cc(Cl)c(N)cc1OC [Metoclopramide hydrochloride],0.00946
16,CN(C)C/C=C(/c1ccc(Br)cc1)c1cccnc1 [Zimelidine dihydrochloride],-0.714
17,NC/C=C/C(=O)O [(E)-4-amino-2-butenoic acid],0.0267
18,"CCN(CC)CCOC(=O)c1cc(Cl)c(N)cc1OC [SDZ-205,557 hydrochloride]",-0.113
19,CC(=O)N[C@@H](Cc1c[nH]c2ccccc12)C(=O)OCc1cc(C(F)(F)F)cc(C(F)(F)F)c1,-0.0388
20,CO[C@H]1/C=C\C=C(/C)C(=O)NC2=CC(=O)C(NCCN(C)C)=C(C[C@@H](C)C[C@H](OC)[C@H](O)[C@@H](C)/C=C(\C)[C@@H]1OC(N)=O)C2=O [17-DMAG HCl (Alvespimycin)],-0.0622
21,CN(C)CCC=C1c2ccccc2COc2ccccc21 [Doxepin hydrochloride],-0.00945
22,CC(C)[N+](C)(CCOC(=O)C1c2ccccc2Oc2ccccc21)C(C)C [Propantheline bromide],0.0639
23,CCN(c1nc(N)c(C(=O)NC(=N)N)nc1Cl)C(C)C [5-(N-Ethyl-N-isopropyl)amiloride],0.691
24,O=C(O)Cc1c[nH]c2ccc(O)cc12 [5-Hydroxyindolacetic acid],-0.11
